Source: patent US20140186357A1
Results are given in words; binding and its absence hold for the method and conditions named. Binding seen in cells or lysates may run through a third protein. Some entries that bind do so weakly or less than the wild type.

Sequences of proteins named here, by UniProt entry; tags and fusion partners are left off. A change or cut given only in a name is not applied to a line headed by its entry.
UniProt P56817: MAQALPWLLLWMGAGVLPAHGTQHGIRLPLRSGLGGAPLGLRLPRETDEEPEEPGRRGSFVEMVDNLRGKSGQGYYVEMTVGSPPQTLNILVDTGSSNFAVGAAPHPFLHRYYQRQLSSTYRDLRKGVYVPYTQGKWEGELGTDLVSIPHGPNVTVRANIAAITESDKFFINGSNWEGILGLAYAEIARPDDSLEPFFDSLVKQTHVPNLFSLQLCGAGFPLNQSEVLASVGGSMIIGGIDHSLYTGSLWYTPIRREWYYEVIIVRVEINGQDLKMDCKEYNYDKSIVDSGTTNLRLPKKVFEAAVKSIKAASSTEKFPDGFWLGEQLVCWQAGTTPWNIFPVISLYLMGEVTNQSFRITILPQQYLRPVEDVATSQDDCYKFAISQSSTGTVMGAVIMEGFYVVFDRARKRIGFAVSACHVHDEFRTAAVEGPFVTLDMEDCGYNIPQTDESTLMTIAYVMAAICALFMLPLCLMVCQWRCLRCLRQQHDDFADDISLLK
UniProt P63165: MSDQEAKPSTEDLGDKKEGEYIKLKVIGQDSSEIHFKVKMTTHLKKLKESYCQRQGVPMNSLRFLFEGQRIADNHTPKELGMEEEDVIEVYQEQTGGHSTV

Columns and labels:
[1] = target: V5-tagged wild type BACE1 (β-secretase) (human) (UniProt P56817); test: co-immunoprecipitation with anti-Myc antibody from H4 cell lysates
[2] = target: V5-tagged wild type BACE1 (β-secretase) (human) (UniProt P56817); test: co-immunoprecipitation with anti-V5 antibody from HBvg cell lysates, Western blot with anti-Myc

binding [1]: binds
binding [2]: binds
Substance: Myc-tagged SUMO1 (small ubiquitin-like modifier 1) (from UniProt P63165 2-97)
